Measured values taken from the supplement of paper PMC8728848.
The list shows a part of the results.

Experiments:
Test in all cases: glycan array binding signal (z-score within array); higher = stronger binding
Conditions in all cases: glycan notation: IUPAC condensed, linker removed
[1] = molecular target: Gal(b1-4)GlcNAc(b1-3)Gal(b1-3)GlcNAc
In short: (§1)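 Glycan array data came from 3228 arrays in the Consortium for Functional Glycomics database, and only arrays with an available protein sequence were kept. Glycan names were put into IUPAC-condensed notation, and columns mapping to the same glycan were averaged. The binding signal is a within-array Z-score, averaged across arrays of one protein sequence run at different concentrations or buffers and across linkers. A negative Z-score can be read as non-binding.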

[2] = molecular target: Gal(b1-4)GlcNAc(b1-3)Gal(b1-4)Glc
In short: as §1

[3] = molecular target: Gal(b1-4)GlcNAc(b1-3)Gal(b1-4)GlcNAc
In short: as §1

[4] = molecular target: Gal(b1-4)GlcNAc(b1-3)Gal(b1-4)GlcNAc(b1-2)Man(a1-3)[Gal(b1-4)GlcNAc(b1-3)Gal(b1-4)GlcNAc(b1-2)Man(a1-6)]Man(b1-4)GlcNAc(b1-4)GlcNAc
In short: as §1

[5] = molecular target: Gal(b1-4)GlcNAc(b1-3)Gal(b1-4)GlcNAc(b1-2)Man(a1-3)[Gal(b1-4)GlcNAc(b1-3)Gal(b1-4)GlcNAc(b1-2)Man(a1-6)]Man(b1-4)GlcNAc(b1-4)[Fuc(a1-6)]GlcNAc
In short: as §1

[6] = molecular target: Gal(b1-4)GlcNAc(b1-3)Gal(b1-4)GlcNAc(b1-2)[Gal(b1-4)GlcNAc(b1-3)Gal(b1-4)GlcNAc(b1-6)]Man(a1-6)[Gal(b1-4)GlcNAc(b1-3)Gal(b1-4)GlcNAc(b1-2)Man(a1-3)]Man(b1-4)GlcNAc(b1-4)GlcNAc
In short: as §1

[7] = molecular target: Gal(b1-4)GlcNAc(b1-3)Gal(b1-4)GlcNAc(b1-2)[Gal(b1-4)GlcNAc(b1-3)Gal(b1-4)GlcNAc(b1-6)]Man(a1-6)[Gal(b1-4)GlcNAc(b1-3)Gal(b1-4)GlcNAc(b1-2)Man(a1-3)]Man(b1-4)GlcNAc(b1-4)[Fuc(a1-6)]GlcNAc
In short: as §1

[8] = molecular target: Gal(b1-4)GlcNAc(b1-3)Gal(b1-4)GlcNAc(b1-3)Gal(b1-4)GlcNAc
In short: as §1

[9] = molecular target: Gal(b1-4)GlcNAc(b1-3)Gal(b1-4)GlcNAc(b1-3)Gal(b1-4)GlcNAc(b1-2)Man(a1-3)[Gal(b1-4)GlcNAc(b1-3)Gal(b1-4)GlcNAc(b1-3)Gal(b1-4)GlcNAc(b1-2)Man(a1-6)]Man(b1-4)GlcNAc(b1-4)GlcNAc
In short: as §1

[10] = molecular target: Gal(b1-4)GlcNAc(b1-3)Gal(b1-4)GlcNAc(b1-3)Gal(b1-4)GlcNAc(b1-2)Man(a1-3)[Gal(b1-4)GlcNAc(b1-3)Gal(b1-4)GlcNAc(b1-3)Gal(b1-4)GlcNAc(b1-2)Man(a1-6)]Man(b1-4)GlcNAc(b1-4)[Fuc(a1-6)]GlcNAc
In short: as §1

[11] = molecular target: Gal(b1-4)GlcNAc(b1-3)Gal(b1-4)GlcNAc(b1-3)Gal(b1-4)GlcNAc(b1-2)[Gal(b1-4)GlcNAc(b1-3)Gal(b1-4)GlcNAc(b1-3)Gal(b1-4)GlcNAc(b1-6)]Man(a1-6)[Gal(b1-4)GlcNAc(b1-3)Gal(b1-4)GlcNAc(b1-3)Gal(b1-4)GlcNAc(b1-2)Man(a1-3)]Man(b1-4)GlcNAc(b1-4)[Fuc(a1-6)]GlcNAc
In short: as §1

[12] = molecular target: Gal(b1-4)GlcNAc(b1-3)Gal(b1-4)GlcNAc(b1-3)Gal(b1-4)GlcNAc(b1-3)Gal(b1-4)GlcNAc(b1-2)Man(a1-3)[Gal(b1-4)GlcNAc(b1-3)Gal(b1-4)GlcNAc(b1-3)Gal(b1-4)GlcNAc(b1-3)Gal(b1-4)GlcNAc(b1-2)Man(a1-6)]Man(b1-4)GlcNAc(b1-4)GlcNAc
In short: as §1

[13] = molecular target: Gal(b1-4)GlcNAc(b1-3)Gal(b1-4)GlcNAc(b1-3)Gal(b1-4)GlcNAc(b1-3)Gal(b1-4)GlcNAc(b1-2)Man(a1-3)[Gal(b1-4)GlcNAc(b1-3)Gal(b1-4)GlcNAc(b1-3)Gal(b1-4)GlcNAc(b1-3)Gal(b1-4)GlcNAc(b1-2)Man(a1-6)]Man(b1-4)GlcNAc(b1-4)[Fuc(a1-6)]GlcNAc
In short: as §1

[14] = molecular target: Gal(b1-4)GlcNAc(b1-3)Gal(b1-4)GlcNAc(b1-3)Gal(b1-4)GlcNAc(b1-3)Gal(b1-4)GlcNAc(b1-2)[Gal(b1-4)GlcNAc(b1-3)Gal(b1-4)GlcNAc(b1-3)Gal(b1-4)GlcNAc(b1-3)Gal(b1-4)GlcNAc(b1-6)]Man(a1-6)[Gal(b1-4)GlcNAc(b1-3)Gal(b1-4)GlcNAc(b1-3)Gal(b1-4)GlcNAc(b1-3)Gal(b1-4)GlcNAc(b1-2)Man(a1-3)]Man(b1-4)GlcNAc(b1-4)[Fuc(a1-6)]GlcNAc
In short: as §1

[15] = molecular target: Gal(b1-4)GlcNAc(b1-3)Gal(b1-4)GlcNAc(b1-3)Gal(b1-4)GlcNAc(b1-3)Gal(b1-4)GlcNAc(b1-3)Gal(b1-4)GlcNAc(b1-2)Man(a1-3)[Gal(b1-4)GlcNAc(b1-3)Gal(b1-4)GlcNAc(b1-3)Gal(b1-4)GlcNAc(b1-3)Gal(b1-4)GlcNAc(b1-3)Gal(b1-4)GlcNAc(b1-2)Man(a1-6)]Man(b1-4)GlcNAc(b1-4)GlcNAc
In short: as §1

[16] = molecular target: Gal(b1-4)GlcNAc(b1-3)Gal(b1-4)GlcNAc(b1-3)Gal(b1-4)GlcNAc(b1-3)Gal(b1-4)GlcNAc(b1-3)Gal(b1-4)GlcNAc(b1-2)Man(a1-3)[Gal(b1-4)GlcNAc(b1-3)Gal(b1-4)GlcNAc(b1-3)Gal(b1-4)GlcNAc(b1-3)Gal(b1-4)GlcNAc(b1-3)Gal(b1-4)GlcNAc(b1-2)Man(a1-6)]Man(b1-4)GlcNAc(b1-4)[Fuc(a1-6)]GlcNAc
In short: as §1

[17] = molecular target: Gal(b1-4)GlcNAc(b1-3)Gal(b1-4)GlcNAc(b1-3)Gal(b1-4)GlcNAc(b1-3)Gal(b1-4)GlcNAc(b1-3)Gal(b1-4)GlcNAc(b1-2)[Gal(b1-4)GlcNAc(b1-3)Gal(b1-4)GlcNAc(b1-3)Gal(b1-4)GlcNAc(b1-3)Gal(b1-4)GlcNAc(b1-3)Gal(b1-4)GlcNAc(b1-6)]Man(a1-6)[Gal(b1-4)GlcNAc(b1-3)Gal(b1-4)GlcNAc(b1-3)Gal(b1-4)GlcNAc(b1-3)Gal(b1-4)GlcNAc(b1-3)Gal(b1-4)GlcNAc(b1-2)Man(a1-3)]Man(b1-4)GlcNAc(b1-4)[Fuc(a1-6)]GlcNAc
In short: as §1

[18] = molecular target: Gal(b1-4)GlcNAc(b1-3)Gal(b1-4)GlcNAc(b1-3)Gal(b1-4)GlcNAc(b1-3)Gal(b1-4)GlcNAc(b1-3)Gal(b1-4)GlcNAc(b1-3)Gal(b1-4)GlcNAc(b1-2)Man(a1-3)[Gal(b1-4)GlcNAc(b1-3)Gal(b1-4)GlcNAc(b1-3)Gal(b1-4)GlcNAc(b1-3)Gal(b1-4)GlcNAc(b1-3)Gal(b1-4)GlcNAc(b1-3)Gal(b1-4)GlcNAc(b1-2)Man(a1-6)]Man(b1-4)GlcNAc(b1-4)GlcNAc
In short: as §1

[19] = molecular target: Gal(b1-4)GlcNAc(b1-3)Gal(b1-4)GlcNAc(b1-3)GalNAc
In short: as §1

B1: LlpA (Arthrobacter sp) (protein)
chain: MGSSHHHHHHSSGLVPRGSHMTLHPETALRPGAAATSPNSRYRLLYQTDGNLVLYGPDGPLWDSGTNGHGAGACIMQADGNLVLYGPNDEYVWDTETDNNPGSRLVIQDDGNAVIYRPDGSPLWATETCQPPGSADSHVLQSGSTLTPTHGIRSANGLYGLLYQTDGNLVFYGPDGPLWDSGTNGRGAGACIMQPDGNLVLYGPHDEYVWDTETDNNPGSRLVIQDDGNAVIYRPDGNPTWVTGTH
With B1 the “glycan array binding signal (z-score)” value [1] was 0.865, the “glycan array binding signal (z-score)” value [2] was -0.027 and the “glycan array binding signal (z-score)” value [3] was -0.238. For the same binder, the “glycan array binding signal (z-score)” value [4] was 0.48, the “glycan array binding signal (z-score)” value [5] was 0.122 and the “glycan array binding signal (z-score)” value [6] was 0.46. For the same binder, the “glycan array binding signal (z-score)” value [7] was 0.136, the “glycan array binding signal (z-score)” value [8] was -0.083 and the “glycan array binding signal (z-score)” value [9] was 0.074. For the same binder, the “glycan array binding signal (z-score)” value [10] was 1.38, the “glycan array binding signal (z-score)” value [11] was 0.644 and the “glycan array binding signal (z-score)” value [12] was -0.527. The “glycan array binding signal (z-score)” value [13] was 0.397, the “glycan array binding signal (z-score)” value [14] was 0.965 and the “glycan array binding signal (z-score)” value [15] was 0.263. For the same binder, the “glycan array binding signal (z-score)” value [16] was 0.321, the “glycan array binding signal (z-score)” value [17] was 0.85 and the “glycan array binding signal (z-score)” value [18] was 0.466. The “glycan array binding signal (z-score)” value [19] was 0.576.
